Article PMC10890620
Like-named read-outs stand apart in the source and are kept apart here. These are yes or no findings as the source states them, for the method shown. Some binding calls cover weakened binding; strength is not graded here. Tags and fused reporters may be left off the sequences shown.

The chains behind the UniProt entries cited, without tags or fusion partners.
UniProt P19474: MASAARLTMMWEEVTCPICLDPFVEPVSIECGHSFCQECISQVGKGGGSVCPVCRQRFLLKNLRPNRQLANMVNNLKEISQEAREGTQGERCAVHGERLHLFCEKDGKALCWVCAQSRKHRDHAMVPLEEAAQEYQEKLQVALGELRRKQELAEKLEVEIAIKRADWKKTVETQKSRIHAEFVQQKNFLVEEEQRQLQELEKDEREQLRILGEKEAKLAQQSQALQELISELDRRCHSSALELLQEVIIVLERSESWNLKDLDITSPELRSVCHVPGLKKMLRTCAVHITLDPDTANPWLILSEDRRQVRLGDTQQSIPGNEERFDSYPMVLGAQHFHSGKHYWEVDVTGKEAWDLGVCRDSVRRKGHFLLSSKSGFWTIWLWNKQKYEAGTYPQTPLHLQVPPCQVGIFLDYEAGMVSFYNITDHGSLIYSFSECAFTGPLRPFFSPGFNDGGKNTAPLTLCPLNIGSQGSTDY

T1: V5 epitope-tagged tyrosinase (UniProt P11344)
T1 sequence: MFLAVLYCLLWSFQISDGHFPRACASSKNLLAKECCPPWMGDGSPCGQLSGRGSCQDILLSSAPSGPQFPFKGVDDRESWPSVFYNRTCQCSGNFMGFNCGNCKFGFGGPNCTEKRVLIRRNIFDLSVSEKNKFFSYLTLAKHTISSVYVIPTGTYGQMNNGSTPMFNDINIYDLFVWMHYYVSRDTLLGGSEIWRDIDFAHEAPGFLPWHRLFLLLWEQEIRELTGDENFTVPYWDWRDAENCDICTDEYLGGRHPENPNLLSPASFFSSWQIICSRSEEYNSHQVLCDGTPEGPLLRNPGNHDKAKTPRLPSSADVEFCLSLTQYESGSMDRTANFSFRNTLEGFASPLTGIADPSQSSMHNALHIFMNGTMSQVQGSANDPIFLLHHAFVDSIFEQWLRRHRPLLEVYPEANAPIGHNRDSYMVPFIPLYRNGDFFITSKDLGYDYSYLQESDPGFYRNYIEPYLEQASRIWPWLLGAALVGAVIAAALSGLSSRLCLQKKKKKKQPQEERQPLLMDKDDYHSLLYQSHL


Tests used:
[1] = molecular target: T1, V5 epitope-tagged tyrosinase; experiment: AlphaScreen or HTRF; screen of 224 biotinylated E3 ligases against V5-tagged bait; 1 uL of each cell-free product in 15 uL of 100 mM Tris-HCl pH 8.0, 0.01% Tween 20, 100 mM NaCl, 1 mg/mL BSA; 1 h at 26 °C; anti-V5 antibody, streptavidin donor and protein A acceptor beads; signal relative to V5-DHFR; run without (DMSO) and with inulavosin
[2] = molecular target: T1, V5 epitope-tagged tyrosinase; experiment: as above; remark: listed apart in the source

Molecule | binding [1] | binding [2]
RNF41 (biotinylated, E3 ligase protein array) (enzyme, UniProt Q9H4P4 1-317, biotinylated) MGYDVTRFQGDVDEDLICPICSGVLEEPVQAPHCEHAFCNACITQWFSQQQTCPVDRSVVTVAHLRPVPRIMRNMLSKLQIACDNAVFGCSAVVRLDNLMSHLSDCEHNPKRPVTCEQGCGLEMPKDELPNHNCIKHLRSVVQQQQTRIAELEKTSAEHKHQLAEQKRDIQLLKAYMRAIRSVNPNLQNLEETIEYNEILEWVNSLQPARVTRWGGMISTPDAVLQAVIKRSLVESGCPASIVNELIENAHERSWPQGLATLETRQMNRRYYENYVAKRIPGKQAVVVMACENQHMGDDMVQEPGLVMIFAHGVEEI | – | binds
RNF152 (biotinylated, E3 ligase protein array) (enzyme, UniProt Q8N8N0 1-203, biotinylated) METLSQDSLLECQICFNYYSPRRRPKLLDCKHTCCSVCLQQMRTSQKDVRCPWCRGVTKLPPGFSVSQLPDDPEVLAVIAIPHTSEHTPVFIKLPSNGCYMLPLPISKERALLPGDMGCRLLPGSQQKSVTVVTIPAEQQPLQGGAPQEAVEEEQDRRGVVKSSTWSGVCTVILVACVLVFLLGIVLHNMSCISKRFTVISCG | – | binds

Further lines, results first:

binding [1] | binding [2] | Molecule
binds | – | TRIM21 (biotinylated, E3 ligase protein array) (from UniProt P19474 1-475) (enzyme)
– | binds | VPS41 (biotinylated, E3 ligase protein array) (protein, UniProt P49754 1-854, biotinylated) MAEAEEQETGSLEESTDESEEEESEEEPKLKYERLSNGVTEILQKDAASCMTVHDKFLALGTHYGKVYLLDVQGNITQKFDVSPVKINQISLDESGEHMGVCSEDGKVQVFGLYSGEEFHETFDCPIKIIAVHPHFVRSSCKQFVTGGKKLLLFERSWMNRWKSAVLHEGEGNIRSVKWRGHLIAWANNMGVKIFDIISKQRITNVPRDDISLRPDMYPCSLCWKDNVTLIIGWGTSVKVCSVKERHASEMRDLPSRYVEIVSQFETEFYISGLAPLCDQLVVLSYVKEISEKTEREYCARPRLDIIQPLSETCEEISSDALTVRGFQENECRDYHLEYSEGESLFYIVSPRDVVVAKERDQDDHIDWLLEKKKYEEALMAAEISQKNIKRHKILDIGLAYINHLVERGDYDIAARKCQKILGKNAALWEYEVYKFKEIGQLKAISPYLPRGDPVLKPLIYEMILHEFLESDYEGFATLIREWPGDLYNNSVIVQAVRDHLKKDSQNKTLLKTLAELYTYDKNYGNALEIYLTLRHKDVFQLIHKHNLFSSIKDKIVLLMDFDSEKAVDMLLDNEDKISIKKVVEELEDRPELQHVYLHKLFKRDHHKGQRYHEKQISLYAEYDRPNLLPFLRDSTHCPLEKALEICQQRNFVEETVYLLSRMGNSRSALKMIMEELHDVDKAIEFAKEQDDGELWEDLILYSIDKPPFITGLLNNIGTHVDPILLIHRIKEGMEIPNLRDSLVKILQDYNLQILLREGCKKILVADSLSLLKKMHRTQMKGVLVDEENICESCLSPILPSDAAKPFSVVVFHCRHMFHKECLPMPSMNSAAQFCNICSAKNRGPGSAILEMKK
– | binds | ZNF598 (biotinylated, E3 ligase protein array) (enzyme, UniProt Q86UK7 1-904, biotinylated) MAAAGGAEGRRAALEAAAAAAPERGGGSCVLCCGDLEATALGRCDHPVCYRCSTKMRVLCEQRYCAVCREELRQVVFGKKLPAFATIPIHQLQHEKKYDIYFADGKVYALYRQLLQHECPRCPELPPFSLFGDLEQHMRRQHELFCCRLCLQHLQIFTYERKWYSRKDLARHRMQGDPDDTSHRGHPLCKFCDERYLDNDELLKHLRRDHYFCHFCDSDGAQDYYSDYAYLREHFREKHFLCEEGRCSTEQFTHAFRTEIDLKAHRTACHSRSRAEARQNRHIDLQFSYAPRHSRRNEGVVGGEDYEEVDRYSRQGRVARAGTRGAQQSRRGSWRYKREEEDREVAAAVRASVAAQQQEEARRSEDQEEGGRPKKEEAAARGPEDPRGPRRSPRTQGEGPGPKETSTNGPVSQEAFSVTGPAAPGCVGVPGALPPPSPKLKDEDFPSLSASTSSSCSTAATPGPVGLALPYAIPARGRSAFQEEDFPALVSSVPKPGTAPTSLVSAWNSSSSSKKVAQPPLSAQATGSGQPTRKAGKGSRGGRKGGPPFTQEEEEDGGPALQELLSTRPTGSVSSTLGLASIQPSKVGKKKKVGSEKPGTTLPQPPPATCPPGALQAPEAPASRAEGPVAVVVNGHTEGPAPARSAPKEPPGLPRPLGSFPCPTPQEDFPALGGPCPPRMPPPPGFSAVVLLKGTPPPPPPGLVPPISKPPPGFSGLLPSPHPACVPSPATTTTTKAPRLLPAPRAYLVPENFRERNLQLIQSIRDFLQSDEARFSEFKSHSGEFRQGLISAAQYYKSCRDLLGENFQKVFNELLVLLPDTAKQQELLSAHTDFCNREKPLSTKSKKNKKSAWQATTQQAGLDCRVCPTCQQVLAHGDASSHQALHAARDDDFPSLQAIARIIT
